In US10221227B2 (INDUSTRY FOUNDATION OF CHONNAM NATIONAL UNIVERSITY, priority 2015, dated 2019):
Ends that are not written are not given here.

Assay: general procedure: Fmoc solid-phase peptide synthesis; Chloro trityl chloride resin (CTL resin, Nova Biochem Cat. No. 01-64-0021); HoBt/Bop/DIEA
Details: whole synthesis

PPRACPTARALCEIR (cysteine pairing not given here)
crude mass: 0.65 g
crude yield (scale of the general procedure 700 mg resin): 93%
